Source: the supplement of paper PMC11348887
Structures can show the parent of a compound that is named as a salt. The list shows a part of the results. Most entries show no effect beyond the scatter of the controls. Where a SMILES comes first, the peptide text is derived from it. The star is where a group is joined. Cbz = O=C(OCc1ccccc1)*; CH2F = FC*

Experiments:
Conditions in all cases: 5 µM; treatment: days 7-14 after plating, readout day 21
[1] = system: hPSC-derived cortical neurons (WA09); test: nucleus area z-score vs screen plate; higher = larger nuclei (more mature)
[2] = system: hPSC-derived cortical neurons (WA09); test: total neurite length per nucleus (MAP2) z-score; higher = more neurite growth
[3] = system: hPSC-derived cortical neurons (WA09); test: nucleus roundness z-score vs screen plate; higher = rounder nuclei (more mature)
[4] = system: hPSC-derived cortical neurons (WA09); test: KCl-induced FOS+/EGR-1+ double-positive nuclei fraction z-score (KCl minus unstimulated); higher = stronger activity-induced IEG response

O=C1C[C@@H](c2ccc(O)cc2)Oc2cc(O)cc(O)c21 [Naringenin]
nucleus area z-score [1]: 0.187
total neurite length per nucleus (z-score) [2]: 0.299
nucleus roundness z-score [3]: 1.29
KCl-induced FOS+/EGR-1+ double-positive nuclei fraction z-score [4]: 1.6

CCC(C)C(NC(=O)C(C(C)CC)N(C)C(C)=O)C(=O)NC(C(=O)NC(CC(C)C)C(=O)C1(C)CO1)C(C)O (centres undefined) [Epoxomicin]
nucleus area z-score [1]: -15.9
total neurite length per nucleus (z-score) [2]: -5.96
nucleus roundness z-score [3]: -2.5
KCl-induced FOS+/EGR-1+ double-positive nuclei fraction z-score [4]: -1.14

O=C(c1ccc(F)cc1)N1CCC[C@H](c2nc(-c3ccc(F)cc3)no2)C1
nucleus area z-score [1]: 0.808
total neurite length per nucleus (z-score) [2]: -0.365
nucleus roundness z-score [3]: -0.302
KCl-induced FOS+/EGR-1+ double-positive nuclei fraction z-score [4]: 0.0232

Cn1nnc(-c2ccc3c(c2)[nH]c2nc(Cc4ccccc4)nc(NC4CCC(N)CC4)c23)n1 (centres undefined)
nucleus area z-score [1]: -14.5
total neurite length per nucleus (z-score) [2]: -5.08
nucleus roundness z-score [3]: -0.735
KCl-induced FOS+/EGR-1+ double-positive nuclei fraction z-score [4]: -0.319

O=C1NC(=O)C(c2ccccc2[N+](=O)[O-])=C1Nc1ccc(O)c(Cl)c1
nucleus area z-score [1]: 0.0596
total neurite length per nucleus (z-score) [2]: 0.196
nucleus roundness z-score [3]: 0.0425
KCl-induced FOS+/EGR-1+ double-positive nuclei fraction z-score [4]: -0.629

O=C(Nc1cccc(Nc2ncc(Br)c(NCCc3cnc[nH]3)n2)c1)N1CCCC1
nucleus area z-score [1]: 0.888
total neurite length per nucleus (z-score) [2]: 0.578
nucleus roundness z-score [3]: -0.286
KCl-induced FOS+/EGR-1+ double-positive nuclei fraction z-score [4]: -0.731

C=C(C)[C@@H]1CC[C@]2(C(=O)O)CC[C@]3(C)[C@H](CC[C@@H]4[C@@]5(C)CC[C@H](O)C(C)(C)[C@@H]5CC[C@]43C)[C@@H]12 [Betulinic acid]
nucleus area z-score [1]: 0.539
total neurite length per nucleus (z-score) [2]: -1.13
nucleus roundness z-score [3]: -1.83
KCl-induced FOS+/EGR-1+ double-positive nuclei fraction z-score [4]: -0.541

Cc1cccc(Nc2nc(NC3CCCCC3N)ncc2C(N)=O)c1 (centres undefined)
nucleus area z-score [1]: -0.0587
total neurite length per nucleus (z-score) [2]: 0.381
nucleus roundness z-score [3]: -0.116
KCl-induced FOS+/EGR-1+ double-positive nuclei fraction z-score [4]: -0.975

C[C@@H]1CCO[C@H]2Cn3cc(C(=O)NCc4ccc(F)cc4F)c(=O)c(O)c3C(=O)N12
nucleus area z-score [1]: 0.291
total neurite length per nucleus (z-score) [2]: 0.455
nucleus roundness z-score [3]: 0.309
KCl-induced FOS+/EGR-1+ double-positive nuclei fraction z-score [4]: 0.547

C#C[C@]1(O)CC[C@H]2[C@@H]3CCC4=CCCC[C@@H]4[C@H]3C(=C)C[C@@]21CC [Desogestrel]
nucleus area z-score [1]: 1.08
total neurite length per nucleus (z-score) [2]: 0.604
nucleus roundness z-score [3]: 0.299
KCl-induced FOS+/EGR-1+ double-positive nuclei fraction z-score [4]: 0.482

CC(=O)Nc1ncc([N+](=O)[O-])s1 [Nithiamide]
nucleus area z-score [1]: 0.145
total neurite length per nucleus (z-score) [2]: 0.0629
nucleus roundness z-score [3]: -0.257
KCl-induced FOS+/EGR-1+ double-positive nuclei fraction z-score [4]: 0.238

CN(C)CC/C=C1/c2ccccc2COc2ccc(CC(=O)O)cc21 [Olopatadine HCl]
nucleus area z-score [1]: 0.424
total neurite length per nucleus (z-score) [2]: -0.0236
nucleus roundness z-score [3]: -0.342
KCl-induced FOS+/EGR-1+ double-positive nuclei fraction z-score [4]: -0.087

COc1c(O)cc2c(c1O)[C@@H]1O[C@H](CO)[C@@H](O)[C@H](O)[C@H]1OC2=O [Bergenin]
nucleus area z-score [1]: 0.17
total neurite length per nucleus (z-score) [2]: 0.143
nucleus roundness z-score [3]: 0.0324
KCl-induced FOS+/EGR-1+ double-positive nuclei fraction z-score [4]: 0.29

Cc1ccc(S(=O)(=O)/C=C/C#N)cc1
nucleus area z-score [1]: -9.82
total neurite length per nucleus (z-score) [2]: -0.999
nucleus roundness z-score [3]: -2.85
KCl-induced FOS+/EGR-1+ double-positive nuclei fraction z-score [4]: 0.0817

N=C(N)N [Guanidine HCl]
nucleus area z-score [1]: -0.156
total neurite length per nucleus (z-score) [2]: 0.211
nucleus roundness z-score [3]: -0.0206
KCl-induced FOS+/EGR-1+ double-positive nuclei fraction z-score [4]: -0.484

COc1ccc2c(c1)C(=O)N(CCc1ccc(S(=O)(=O)NC(=O)NC3CCCCC3)cc1)C(=O)C2(C)C [Gliquidone]
nucleus area z-score [1]: 0.59
total neurite length per nucleus (z-score) [2]: 0.808
nucleus roundness z-score [3]: 1.2
KCl-induced FOS+/EGR-1+ double-positive nuclei fraction z-score [4]: 0.518

Nc1ncn([C@@H]2O[C@H](CO)[C@@H](O)[C@H]2O)c(=O)n1 [Azacitidine]
nucleus area z-score [1]: -0.211
total neurite length per nucleus (z-score) [2]: 0.667
nucleus roundness z-score [3]: 0.71
KCl-induced FOS+/EGR-1+ double-positive nuclei fraction z-score [4]: 0.301

CCCCCOC(=O)Nc1nc(=O)n([C@@H]2O[C@H](C)[C@@H](O)[C@H]2O)cc1F [Capecitabine]
nucleus area z-score [1]: 1.02
total neurite length per nucleus (z-score) [2]: 0.0162
nucleus roundness z-score [3]: 0.469
KCl-induced FOS+/EGR-1+ double-positive nuclei fraction z-score [4]: 1.39

O=C(NCCN1CCOCC1)c1ccc(Cl)cc1
nucleus area z-score [1]: -0.0644
total neurite length per nucleus (z-score) [2]: 1.38
nucleus roundness z-score [3]: -0.162
KCl-induced FOS+/EGR-1+ double-positive nuclei fraction z-score [4]: -0.207

CCOC(=O)[C@H](CCc1ccccc1)N[C@@H](C)C(=O)N1[C@H](C(=O)O)C[C@@H]2CCC[C@@H]21 [Ramipril]
nucleus area z-score [1]: 0.195
total neurite length per nucleus (z-score) [2]: 0.147
nucleus roundness z-score [3]: 0.0984
KCl-induced FOS+/EGR-1+ double-positive nuclei fraction z-score [4]: -1.1

COc1ccc(S(=O)(=O)N(CCO)c2ccccc2CN(C)C/C=C/c2ccc(Cl)cc2)cc1 [KN-93 Phosphate]
nucleus area z-score [1]: -3.17
total neurite length per nucleus (z-score) [2]: -1.02
nucleus roundness z-score [3]: -1.05
KCl-induced FOS+/EGR-1+ double-positive nuclei fraction z-score [4]: -0.472

CCc1ccc(/C=C2/SC(=S)NC2=O)cc1
nucleus area z-score [1]: 2.32
total neurite length per nucleus (z-score) [2]: 0.732
nucleus roundness z-score [3]: 0.586
KCl-induced FOS+/EGR-1+ double-positive nuclei fraction z-score [4]: 0.131

Nc1nc(N)c2nc(-c3ccccc3)c(N)nc2n1 [Triamterene]
nucleus area z-score [1]: 1.04
total neurite length per nucleus (z-score) [2]: -0.411
nucleus roundness z-score [3]: -0.101
KCl-induced FOS+/EGR-1+ double-positive nuclei fraction z-score [4]: -0.251

COc1cnc(NS(=O)(=O)c2ccc(N)cc2)nc1 [Sulfameter]
nucleus area z-score [1]: 0.0456
total neurite length per nucleus (z-score) [2]: 0.815
nucleus roundness z-score [3]: 1.51
KCl-induced FOS+/EGR-1+ double-positive nuclei fraction z-score [4]: 1.23

C[C@@H]1O[C@@H](O[C@H]2[C@H](Oc3cc(O)c(C(=O)CCc4ccc(O)cc4)c(O)c3)O[C@H](CO)[C@@H](O)[C@@H]2O)[C@H](O)[C@H](O)[C@H]1O [Naringin Dihydrochalcone]
nucleus area z-score [1]: 0.543
total neurite length per nucleus (z-score) [2]: 0.807
nucleus roundness z-score [3]: 0.583
KCl-induced FOS+/EGR-1+ double-positive nuclei fraction z-score [4]: 1.77

COC(=O)C[C@H](NC(=O)[C@H](C)NC(=O)[C@@H](NC(=O)OCc1ccccc1)C(C)C)C(=O)CF [Z-VAD-FMK (Caspase Inhibitor VI)] (Cbz-Val-Ala-Asp(OMe)-CH2F)
nucleus area z-score [1]: 0.0877
total neurite length per nucleus (z-score) [2]: 1.46
nucleus roundness z-score [3]: 1.06
KCl-induced FOS+/EGR-1+ double-positive nuclei fraction z-score [4]: -0.103
